Record: PubChem BioAssay AID686938 (Drosophila RNAi Screening Center, 2013)
The screen tested about 23,000 reagents; this is a random part of those with a known target gene and a result. In the full data, 75 (0.33%) are marked active. 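Raw plate signals without normalisation; calls rest on plate z-scores that were not deposited; ratio present for only 364 wells.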 Entries without a mark were called inactive. Not given: the dose of the treatment.

- Assay: 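Looking for CRAC channel components and the factors controlling them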 (primary screen)
- Cell system: Drosophila S2R+ cells
- Reagent: long dsRNA against Drosophila genes, about 0.25 µg dsRNA per well, roughly 10,000 cells
- Duration: 5 days of knock-down before the calcium assay
- Challenge: thapsigargin (SERCA pump blocker) to empty calcium stores; entry signal taken 4 min after adding it
- Measurement: 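Duplicate raw fluo-4 intensities per well from a plate reader, at rest and four minutes after thapsigargin emptied calcium stores; entry-to-rest ratio filled for only some wells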
- Scale: calcium entry signal: higher = stronger calcium signal after store depletion; entry to resting ratio: higher = more calcium entry relative to resting level; resting calcium signal: higher = higher resting calcium signal
- Active means: 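Called when the plate z-score of the entry-to-rest ratio, mean of duplicates, falls below −3; wells with low overall dye signal (Fmax z below −2) or more than five off-targets excluded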
- Meaning of the calls: active = strongly reduced calcium entry; inactive = no strong reduction

| Target gene | amplicon | calcium entry signal, replicate 1 (fluorescence units) | calcium entry signal, replicate 2 (fluorescence units) | entry to resting ratio | resting calcium signal, replicate 1 (fluorescence units) | resting calcium signal, replicate 2 (fluorescence units) |
| --- | --- | --- | --- | --- | --- | --- |
| CG32631 (GeneID 32311) | DRSC19768 | 4.04e7 | 4.44e7 | – | 1.77e7 | 1.94e7 |
| CG30440 (GeneID 35496) | DRSC04775 | 1.42e7 | 2.23e7 | – | 7.33e6 | 1.92e7 |
| CG30440 (GeneID 35496) | DRSC04845 | 3.66e7 | 4.03e7 | – | 1.86e7 | 1.86e7 |
| CG30440 (GeneID 35496) | DRSC04855 | 3.61e7 | 3.94e7 | – | 1.86e7 | 1.80e7 |
| Eglp4 (GeneID 37739) | DRSC04438 | 3.39e7 | 4.97e7 | – | 1.87e7 | 2.27e7 |
| CG32533 (GeneID 32933) | DRSC19443 | 4.00e7 | 4.18e7 | – | 1.73e7 | 1.67e7 |
| CG32533 (GeneID 32933) | DRSC19553 | 4.15e7 | 4.44e7 | – | 2.29e7 | 2.07e7 |
| CG14949 (GeneID 38328) | DRSC08408 | 3.77e7 | 4.99e7 | – | 1.85e7 | 2.05e7 |
| CG42795 (GeneID 41252) | DRSC12772 | 2.30e7 | 2.97e7 | – | 1.09e7 | 1.44e7 |
| CG42795 (GeneID 41252) | DRSC15533 | 2.69e7 | 2.29e7 | – | 1.53e7 | 1.29e7 |
| Nlg2 (GeneID 33962) | DRSC00957 | 3.72e7 | 3.57e7 | – | 1.83e7 | 1.58e7 |
| Nlg2 (GeneID 33962) | DRSC03578 | 3.15e7 | 3.07e7 | – | 1.52e7 | 1.43e7 |

Single entries from the entries so far:
Value for CG42795 (GeneID 41252) [DRSC12772] under “calcium entry signal, replicate 2 (fluorescence units)”: 2.97e7
For “calcium entry signal, replicate 2 (fluorescence units)”, CG30440 (GeneID 35496) [DRSC04855] is entered as 3.94e7

Further entries follow.
| Target gene | amplicon | calcium entry signal, replicate 1 (fluorescence units) | calcium entry signal, replicate 2 (fluorescence units) | entry to resting ratio | resting calcium signal, replicate 1 (fluorescence units) | resting calcium signal, replicate 2 (fluorescence units) |
| --- | --- | --- | --- | --- | --- | --- |
| CG31533 (GeneID 318788) | DRSC13018 | 3.30e7 | 4.08e7 | – | 1.98e7 | 1.85e7 |
| Con (GeneID 38590) | DRSC08652 | 4.89e7 | 3.54e7 | – | 3.04e7 | 1.48e7 |
| CG2861 (GeneID 31414) | DRSC18229 | 3.71e7 | 4.65e7 | – | 1.86e7 | 2.19e7 |
| Cyp313a2 (GeneID 41487) | DRSC16625 | 3.52e7 | 2.85e7 | – | 1.70e7 | 1.45e7 |
| CG14693 (GeneID 41299) | DRSC14916 | 3.54e7 | 3.71e7 | – | 1.67e7 | 1.69e7 |
| Nca (GeneID 40186) | DRSC11233 | 3.65e7 | 5.32e7 | – | 1.77e7 | 2.32e7 |
| CG5828 (GeneID 33742) | DRSC02900 | 3.94e7 | 3.00e7 | – | 1.87e7 | 1.40e7 |
| CG7083 (GeneID 38943) | DRSC11136 | 2.59e7 | 3.91e7 | – | 1.26e7 | 1.78e7 |
| ND-19 (GeneID 37946) | DRSC04404 | 5.47e7 | 2.41e7 | – | 2.73e7 | 1.25e7 |
| CG16837 (GeneID 37904) | DRSC04283 | 4.52e7 | 4.35e7 | – | 2.17e7 | 1.83e7 |
| CG3699 (GeneID 31046) | DRSC18171 | 6.01e7 | 5.22e7 | 2.1 | 2.89e7 | 2.32e7 |
| CG3699 (GeneID 31046) | DRSC18642 | 3.02e7 | 3.66e7 | 2.1 | 1.44e7 | 1.43e7 |
